From the supplement of paper PMC10849652
This is one part of the list.

Amino acid sequences for entries named in this document (tags omitted). A change or cut given only in a name is not applied to a line headed by its entry.
UniProt Q9UDY4: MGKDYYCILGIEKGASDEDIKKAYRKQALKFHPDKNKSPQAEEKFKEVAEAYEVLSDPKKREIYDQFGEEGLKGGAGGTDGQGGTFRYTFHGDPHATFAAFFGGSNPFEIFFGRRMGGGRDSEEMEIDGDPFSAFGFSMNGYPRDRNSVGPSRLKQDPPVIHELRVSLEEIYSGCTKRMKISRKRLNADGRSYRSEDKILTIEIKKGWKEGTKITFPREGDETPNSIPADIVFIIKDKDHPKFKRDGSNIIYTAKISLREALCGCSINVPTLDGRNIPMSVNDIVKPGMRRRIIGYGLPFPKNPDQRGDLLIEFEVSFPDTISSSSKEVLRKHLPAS
UniProt Q6XZF7: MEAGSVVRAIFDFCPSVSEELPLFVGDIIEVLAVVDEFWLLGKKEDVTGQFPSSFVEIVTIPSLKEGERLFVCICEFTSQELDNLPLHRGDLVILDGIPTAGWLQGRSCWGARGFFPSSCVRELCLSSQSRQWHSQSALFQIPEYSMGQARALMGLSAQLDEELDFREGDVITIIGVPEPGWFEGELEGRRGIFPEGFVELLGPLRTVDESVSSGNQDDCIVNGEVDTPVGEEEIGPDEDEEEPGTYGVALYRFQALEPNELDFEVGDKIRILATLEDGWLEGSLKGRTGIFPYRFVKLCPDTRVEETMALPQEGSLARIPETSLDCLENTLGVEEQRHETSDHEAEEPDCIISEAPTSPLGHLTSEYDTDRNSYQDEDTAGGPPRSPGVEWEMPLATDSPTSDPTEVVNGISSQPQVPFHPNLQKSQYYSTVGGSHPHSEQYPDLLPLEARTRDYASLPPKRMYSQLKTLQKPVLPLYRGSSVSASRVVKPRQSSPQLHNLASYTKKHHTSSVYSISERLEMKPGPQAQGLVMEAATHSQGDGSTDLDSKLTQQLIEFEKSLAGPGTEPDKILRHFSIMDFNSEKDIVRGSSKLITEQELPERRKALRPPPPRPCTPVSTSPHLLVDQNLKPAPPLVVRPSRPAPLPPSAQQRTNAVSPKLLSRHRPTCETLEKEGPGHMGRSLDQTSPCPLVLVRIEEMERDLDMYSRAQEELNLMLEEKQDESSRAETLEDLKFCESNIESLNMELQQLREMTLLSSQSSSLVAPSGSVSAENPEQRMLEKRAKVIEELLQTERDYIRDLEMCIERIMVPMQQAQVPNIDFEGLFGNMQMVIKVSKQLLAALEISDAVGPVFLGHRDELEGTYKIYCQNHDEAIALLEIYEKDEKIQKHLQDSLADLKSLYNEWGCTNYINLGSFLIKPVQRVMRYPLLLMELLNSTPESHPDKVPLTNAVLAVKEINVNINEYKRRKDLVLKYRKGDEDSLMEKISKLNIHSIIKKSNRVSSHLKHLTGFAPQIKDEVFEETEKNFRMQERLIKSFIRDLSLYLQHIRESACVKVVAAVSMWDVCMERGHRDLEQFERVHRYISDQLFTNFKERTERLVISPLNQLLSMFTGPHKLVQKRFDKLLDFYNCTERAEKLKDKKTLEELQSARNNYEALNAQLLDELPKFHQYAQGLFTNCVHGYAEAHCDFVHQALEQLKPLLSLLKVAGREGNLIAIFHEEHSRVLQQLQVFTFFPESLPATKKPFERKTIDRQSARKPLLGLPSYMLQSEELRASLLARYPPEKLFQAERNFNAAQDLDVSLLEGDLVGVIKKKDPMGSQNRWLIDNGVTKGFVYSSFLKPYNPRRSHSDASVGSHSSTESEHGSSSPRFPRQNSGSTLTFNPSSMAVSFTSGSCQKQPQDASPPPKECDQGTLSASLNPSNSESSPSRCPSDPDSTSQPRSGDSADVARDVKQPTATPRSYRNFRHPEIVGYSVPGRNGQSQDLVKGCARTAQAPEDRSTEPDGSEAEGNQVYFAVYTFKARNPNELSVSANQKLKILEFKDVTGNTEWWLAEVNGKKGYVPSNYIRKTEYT
UniProt Q68CQ4: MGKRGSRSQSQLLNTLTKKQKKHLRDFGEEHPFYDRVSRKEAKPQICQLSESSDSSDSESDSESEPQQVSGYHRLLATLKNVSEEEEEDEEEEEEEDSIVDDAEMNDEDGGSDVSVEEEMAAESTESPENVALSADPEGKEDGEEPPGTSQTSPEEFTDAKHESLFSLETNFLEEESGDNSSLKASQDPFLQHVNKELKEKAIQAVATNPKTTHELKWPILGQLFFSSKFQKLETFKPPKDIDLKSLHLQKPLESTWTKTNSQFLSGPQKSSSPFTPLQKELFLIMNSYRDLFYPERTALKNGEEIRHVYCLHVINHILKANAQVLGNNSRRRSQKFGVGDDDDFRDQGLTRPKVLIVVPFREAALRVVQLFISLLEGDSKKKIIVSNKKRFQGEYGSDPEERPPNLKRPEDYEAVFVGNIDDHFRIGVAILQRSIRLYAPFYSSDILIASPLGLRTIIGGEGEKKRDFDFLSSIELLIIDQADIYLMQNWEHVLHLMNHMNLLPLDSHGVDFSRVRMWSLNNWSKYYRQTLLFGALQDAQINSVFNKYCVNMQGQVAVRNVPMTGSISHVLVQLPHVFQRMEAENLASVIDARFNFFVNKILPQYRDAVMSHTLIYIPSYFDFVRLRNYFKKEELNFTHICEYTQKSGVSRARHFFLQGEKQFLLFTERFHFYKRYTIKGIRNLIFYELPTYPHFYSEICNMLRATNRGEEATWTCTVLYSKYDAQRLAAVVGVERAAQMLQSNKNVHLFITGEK
UniProt Q9NXW2: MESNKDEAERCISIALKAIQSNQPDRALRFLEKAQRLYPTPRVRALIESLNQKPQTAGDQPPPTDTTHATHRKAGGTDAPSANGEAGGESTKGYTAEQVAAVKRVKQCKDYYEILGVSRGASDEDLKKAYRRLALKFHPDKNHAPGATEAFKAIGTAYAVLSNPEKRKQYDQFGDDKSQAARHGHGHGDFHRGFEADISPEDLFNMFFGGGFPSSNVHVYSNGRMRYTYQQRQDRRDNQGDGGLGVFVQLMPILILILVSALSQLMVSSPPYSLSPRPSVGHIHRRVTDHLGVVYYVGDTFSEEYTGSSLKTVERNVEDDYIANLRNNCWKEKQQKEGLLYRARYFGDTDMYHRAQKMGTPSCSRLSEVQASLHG
UniProt P98153: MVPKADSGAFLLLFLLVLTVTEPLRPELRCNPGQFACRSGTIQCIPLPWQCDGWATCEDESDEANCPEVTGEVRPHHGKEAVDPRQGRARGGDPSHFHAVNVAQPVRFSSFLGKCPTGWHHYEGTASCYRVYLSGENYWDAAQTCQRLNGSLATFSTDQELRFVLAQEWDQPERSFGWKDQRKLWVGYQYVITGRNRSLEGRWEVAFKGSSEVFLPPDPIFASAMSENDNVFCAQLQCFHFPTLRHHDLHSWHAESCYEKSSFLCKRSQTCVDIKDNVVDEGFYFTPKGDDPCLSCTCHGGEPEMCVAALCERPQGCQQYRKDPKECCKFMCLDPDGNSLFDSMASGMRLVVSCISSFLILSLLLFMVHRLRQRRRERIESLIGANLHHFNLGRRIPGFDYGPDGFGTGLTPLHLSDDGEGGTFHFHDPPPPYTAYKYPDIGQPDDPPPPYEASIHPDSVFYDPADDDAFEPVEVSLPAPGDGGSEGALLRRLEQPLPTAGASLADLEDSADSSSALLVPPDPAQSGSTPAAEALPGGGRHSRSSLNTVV
UniProt Q08495: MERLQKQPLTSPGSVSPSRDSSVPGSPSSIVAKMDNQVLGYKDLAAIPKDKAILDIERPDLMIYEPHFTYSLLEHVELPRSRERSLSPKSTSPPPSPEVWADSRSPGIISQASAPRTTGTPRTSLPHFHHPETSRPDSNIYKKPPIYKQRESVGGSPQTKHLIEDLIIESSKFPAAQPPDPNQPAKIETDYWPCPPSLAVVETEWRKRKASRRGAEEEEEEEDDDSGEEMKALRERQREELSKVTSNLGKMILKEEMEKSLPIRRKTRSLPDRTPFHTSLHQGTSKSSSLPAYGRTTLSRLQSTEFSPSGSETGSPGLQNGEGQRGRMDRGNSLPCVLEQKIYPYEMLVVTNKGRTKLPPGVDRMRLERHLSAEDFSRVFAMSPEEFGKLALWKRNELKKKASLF
UniProt P0CG22: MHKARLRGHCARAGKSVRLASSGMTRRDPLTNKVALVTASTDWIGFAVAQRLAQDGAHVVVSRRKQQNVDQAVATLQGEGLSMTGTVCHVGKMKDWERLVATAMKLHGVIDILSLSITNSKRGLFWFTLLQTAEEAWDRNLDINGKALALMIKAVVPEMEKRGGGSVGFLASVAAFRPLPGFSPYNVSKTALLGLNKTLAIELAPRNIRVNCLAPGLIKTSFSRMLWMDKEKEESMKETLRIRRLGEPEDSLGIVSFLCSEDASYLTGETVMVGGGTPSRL
UniProt Q6P3W2: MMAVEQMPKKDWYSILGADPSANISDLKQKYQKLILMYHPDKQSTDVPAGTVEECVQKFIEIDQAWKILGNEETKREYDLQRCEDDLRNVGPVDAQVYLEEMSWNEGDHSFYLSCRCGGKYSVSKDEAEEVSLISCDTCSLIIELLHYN
UniProt P25686: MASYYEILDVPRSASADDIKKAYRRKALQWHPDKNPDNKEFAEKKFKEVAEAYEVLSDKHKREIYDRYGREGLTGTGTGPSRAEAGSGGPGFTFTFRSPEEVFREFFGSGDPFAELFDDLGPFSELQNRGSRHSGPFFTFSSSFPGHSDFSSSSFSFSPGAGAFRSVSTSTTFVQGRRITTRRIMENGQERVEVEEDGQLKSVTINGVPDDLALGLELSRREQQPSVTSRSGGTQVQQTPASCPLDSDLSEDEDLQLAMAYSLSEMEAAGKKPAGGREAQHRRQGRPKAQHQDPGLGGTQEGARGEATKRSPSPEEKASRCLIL
UniProt Q9H147: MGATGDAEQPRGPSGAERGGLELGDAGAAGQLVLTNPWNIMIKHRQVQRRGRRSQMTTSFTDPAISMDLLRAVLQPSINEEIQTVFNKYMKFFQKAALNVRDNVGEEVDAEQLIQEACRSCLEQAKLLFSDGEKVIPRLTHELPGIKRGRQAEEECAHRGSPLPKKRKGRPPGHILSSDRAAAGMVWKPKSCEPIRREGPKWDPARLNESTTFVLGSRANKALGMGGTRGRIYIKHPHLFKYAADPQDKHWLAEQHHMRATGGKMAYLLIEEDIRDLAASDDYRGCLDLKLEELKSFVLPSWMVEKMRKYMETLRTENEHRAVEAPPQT
UniProt Q9NW81: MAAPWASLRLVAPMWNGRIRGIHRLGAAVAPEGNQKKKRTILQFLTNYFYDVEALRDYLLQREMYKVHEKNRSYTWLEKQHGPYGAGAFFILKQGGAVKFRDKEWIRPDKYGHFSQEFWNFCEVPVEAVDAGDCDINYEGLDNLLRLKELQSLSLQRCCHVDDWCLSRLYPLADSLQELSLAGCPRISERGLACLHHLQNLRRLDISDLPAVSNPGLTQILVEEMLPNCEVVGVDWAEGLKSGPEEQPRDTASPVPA
UniProt Q4LDG9: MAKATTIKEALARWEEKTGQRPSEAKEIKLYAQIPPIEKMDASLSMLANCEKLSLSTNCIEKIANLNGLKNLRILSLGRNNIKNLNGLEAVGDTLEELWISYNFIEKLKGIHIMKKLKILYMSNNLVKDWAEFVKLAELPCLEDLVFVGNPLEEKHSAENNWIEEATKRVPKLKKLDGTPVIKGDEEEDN
UniProt Q96DA6: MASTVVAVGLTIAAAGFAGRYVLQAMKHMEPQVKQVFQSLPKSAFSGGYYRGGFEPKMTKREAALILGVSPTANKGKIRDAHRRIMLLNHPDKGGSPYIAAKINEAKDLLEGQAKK
UniProt Q96EY1: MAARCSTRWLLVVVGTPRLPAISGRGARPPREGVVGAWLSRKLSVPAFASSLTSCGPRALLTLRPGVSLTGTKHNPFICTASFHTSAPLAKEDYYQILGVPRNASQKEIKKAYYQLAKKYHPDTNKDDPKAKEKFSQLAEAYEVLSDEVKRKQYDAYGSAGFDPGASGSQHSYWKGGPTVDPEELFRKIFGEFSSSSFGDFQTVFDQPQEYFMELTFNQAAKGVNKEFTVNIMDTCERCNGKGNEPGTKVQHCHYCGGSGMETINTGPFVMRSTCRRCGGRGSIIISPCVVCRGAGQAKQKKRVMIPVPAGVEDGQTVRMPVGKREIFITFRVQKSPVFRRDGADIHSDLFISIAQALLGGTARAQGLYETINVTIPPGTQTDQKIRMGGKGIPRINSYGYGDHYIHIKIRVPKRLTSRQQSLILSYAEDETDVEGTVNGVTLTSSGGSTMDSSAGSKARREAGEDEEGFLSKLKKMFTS

Assays:
Test in all cases: log2 fold change, soluble protein after heating vs DMSO (PISA); higher = thermal stabilisation; K562 lysate, 10 uM; active = over 0.2 and 3.5 SD of the protein, either way, in both replicates (recomputed)
erlotinib = compound: C#Cc1cccc(Nc2ncnc3cc(OCCOC)c(OCCOC)cc23)c1 [erlotinib]
Method in brief: (§1)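 The values are log-two fold changes in thermal stability compared with solvent controls and come from duplicates. They were obtained by TMTpro 16plex LC-MS/MS, with channel sums equalised, on the supernatant after 21,000xg for 90 min. That supernatant came from crude K562 extract at 1 mg/mL protein treated with 10 μM compound for 30 min, heated for 3 min across 48°C-58°C, pooled and brought to 0.5% NP-40 at 4°C.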

[1] = compound: C/C(=N\NC(=O)C1=CC(=CC=C1)S(=O)(=O)N2CCOCC2)/C3=C(C=CC(=C3)Cl)O
Method in brief: as §1

[2] = compound: C1=CC(=CC=C1C2=NC3=C(N2)C=C(C=C3)C(=O)N)OC4=CC=C(C=C4)Cl
Method in brief: as §1

[3] = compound: C1=CC2=C(C=CC(=C2)/C=C\3/C(=O)NC(=NCC4=CC=CS4)S3)N=C1
Method in brief: as §1

[4] = compound: C1=CC2=NC=CN=C2C=C1/C=C/3\C(=O)NC(=O)S3
Method in brief: as §1

[5] = compound: C1=CC=C(C=C1)C2=NC(=C(N2)C3=CC=NC=C3)C4=CC(=C(C=C4)Cl)O
Method in brief: as §1

[6] = compound: C1=CC=C2C(=C1)C3=NNC4=CC=CC(=C43)C2=O
Method in brief: as §1

[7] = compound: C1CCN(C1)C(=O)NC2=CC=CC(=C2)NC3=NC=C(C(=N3)NCCC4=CN=CN4)Br
Method in brief: as §1

[8] = compound: C1CN(CCC1(CC2=CC=C(C=C2)Cl)N)C3=NC=NC4=C3C=CN4
Method in brief: as §1

IRAK-1-4 Inhibitor I = compound: C1COCCN1CCN2C3=CC=CC=C3N=C2NC(=O)C4=CC(=CC=C4)[N+](=O)[O-] [IRAK-1-4 Inhibitor I]
Method in brief: as §1

ibrutinib = compound: C=CC(=O)N1CCC[C@@H](n2nc(-c3ccc(Oc4ccccc4)cc3)c3c(N)ncnc32)C1 [ibrutinib]
Method in brief: as §1

[9] = compound: CC(=O)c1cnc2ccc(-c3cc(Cl)c(O)c(Cl)c3)nc2c1N[C@H]1CC[C@H](CN(C)C)CC1
Method in brief: as §1

ralimetinib = compound: CC(C)(C)Cn1c(N)nc2ccc(-c3[nH]c(C(C)(C)C)nc3-c3ccc(F)cc3)nc21 [ralimetinib]
Method in brief: as §1

[10] = compound: CC(C)(O)CC(=O)NCCn1ccc2ncnc(Nc3ccc(Oc4cccc(C(F)(F)F)c4)c(Cl)c3)c21
Method in brief: as §1

[11] = compound: CC(C)C1=C2N=C(C=C(N2N=C1)NCC3=CC=CC=C3)NCCCCCCN
Method in brief: as §1

[12] = compound: CC1=C(C(CC(=O)N1)C2=CC=C(C=C2)C(F)(F)F)C(=O)NC3=C(C=C4C(=C3)C=NN4)F
Method in brief: as §1

[13] = compound: CC1=C(C2=C(C=C1)C(=O)C3=CC=CC=C3N2CCCN)C
Method in brief: as §1

[14] = compound: CC1=C(C=C(C=C1)NC(=O)C2=CC(=CC=C2)C(C)(C)C#N)NC3=CC4=C(C=C3)N=CN(C4=O)C
Method in brief: as §1

[15] = compound: CC1=C(C=C(C=C1)NC(=O)C2=CC(=CC=C2)N(C)C)NC(=O)C3=CC=C(C=C3)O
Method in brief: as §1

[16] = compound: CC1=CC=C(C=C1)SC2=C3C=C(SC3=CN=C2)C(=O)N
Method in brief: as §1

Measured: log2 fold change

DNAJB4 (UniProt Q9UDY4)
inactive: erlotinib -0.03 | [1] -0.015 | [2] -0.016 | [3] -0.02 | [4] 0.053 | [5] 0.057 | [6] -0.008 | [7] -0.034 | [8] 0.015 | IRAK-1-4 Inhibitor I 0.015 | ibrutinib -0.02 | [9] 0.053 | ralimetinib -0.005 | [10] -0.014 | [11] 0.022 | [12] 0.033 | [13] 0.02 | [14] 0.001 | [15] 0.022 | [16] 0.01

DNAJC1 (UniProt Q96KC8)
inactive: erlotinib -0.018 | [1] -0.011 | [2] -0.159 | [3] -0.053 | [4] 0.032 | [5] -0.044 | [6] -0.039 | [7] -0.011 | [8] 0.017 | IRAK-1-4 Inhibitor I 0.013 | ibrutinib -0.018 | [9] 0.018 | ralimetinib -0.007 | [10] -0.048 | [11] -0.014 | [12] 0.019 | [13] 0.019 | [14] -0.009 | [15] 0.032 | [16] 0.011

DNMBP (UniProt Q6XZF7)
inactive: erlotinib 0.06 | [1] 0.675 | [2] 0.057 | [3] 0.042 | [4] -0.117 | [5] 0.03 | [6] -0.033 | [7] 0.012 | [8] -0.006 | IRAK-1-4 Inhibitor I 0.072 | ibrutinib -0.001 | [9] -0.106 | ralimetinib 0.026 | [10] 0.003 | [11] 0.022 | [12] 0.084 | [13] -0.145 | [14] -0.029 | [15] -0.053 | [16] 0.01

DIEXF (UniProt Q68CQ4)
inactive: erlotinib 0.013 | [1] -0.025 | [2] 0.084 | [3] 0.051 | [4] -0.084 | [5] -0.016 | [6] 0.005 | [7] -0.065 | [8] 0.023 | IRAK-1-4 Inhibitor I -0.048 | ibrutinib -0.035 | [9] 0.013 | ralimetinib 0.019 | [10] -0.031 | [11] -0.09 | [12] 0.05 | [13] 0.003 | [14] -0.067 | [15] -0.019 | [16] 0.018

DNAJB12 (UniProt Q9NXW2)
inactive: erlotinib 0.049 | [1] 0.163 | [2] 0.007 | [3] -0.037 | [4] 0.033 | [5] -0.066 | [6] -0.055 | [7] 0.019 | [8] 0.069 | IRAK-1-4 Inhibitor I -0.009 | ibrutinib 0.064 | [9] 0.069 | ralimetinib 0.026 | [10] -0.081 | [11] 0.033 | [12] 0.005 | [13] 0.088 | [14] 0.068 | [15] 0.042 | [16] 0.036

DGCR2 (UniProt P98153)
inactive: erlotinib 0.05 | [1] 0.01 | [2] -0.129 | [3] 0.031 | [5] -0.173 | [6] -0.084 | [7] 0.056 | [8] 0.006 | IRAK-1-4 Inhibitor I -0.086 | [9] 0.092 | ralimetinib 0.082 | [10] 0.012 | [11] 0.154 | [12] 0.163 | [13] -0.028 | [15] -0.024 | [16] 0.019

DMTN isoform 2 (UniProt Q08495)
inactive: erlotinib -0.11 | [1] 0.016 | [2] 0.036 | [3] 0.069 | [6] -0.099 | [7] -0.036 | [8] 0.002 | [9] -0.04 | [11] 0.058 | [13] -0.106 | [14] 0.088 | [16] 0.214

DHRS4L1 (UniProt P0CG22)
inactive: erlotinib 0.01 | [1] 0.156 | [2] -0.05 | [3] -0.136 | [4] -0.014 | [5] -0.062 | [6] 0.01 | [7] -0.005 | [8] 0.026 | IRAK-1-4 Inhibitor I 0.018 | ibrutinib 0.022 | [9] -0.021 | ralimetinib 0.023 | [10] 0.075 | [11] -0.035 | [13] -0.204 | [14] -0.002 | [15] 0.045 | [16] -0.065

DNAJC24 (UniProt Q6P3W2)
inactive: erlotinib 0.034 | [1] -0.069 | [2] 0.021 | [3] 0.011 | [5] 0.016 | [6] 0.081 | [7] 0.01 | [8] 0.01 | IRAK-1-4 Inhibitor I -0.055 | [9] -0.12 | ralimetinib -0.052 | [10] 0.113 | [11] -0.067 | [12] -0.048 | [13] 0.064 | [14] 0.031 | [15] 0.047 | [16] 0.064

DNHD1 (UniProt Q96M86)
inactive: erlotinib 0.262 | [1] -0.095 | [2] 0.006 | [3] 0.024 | [4] -0.06 | [5] 0.178 | [6] -0.211 | IRAK-1-4 Inhibitor I 0.183 | ibrutinib -0.001 | [9] -0.068 | ralimetinib -0.188 | [10] -0.072 | [11] -0.056 | [14] 0.073 | [15] 0.062 | [16] -0.234

DNAJB2 (UniProt P25686)
inactive: erlotinib 0.082 | [1] 0.037 | [2] -0.013 | [3] 0.176 | [4] 0.277 | [6] -0.028 | [7] 0.018 | [8] -0.122 | ibrutinib 0.137 | [11] -0.032 | [12] 0.258 | [13] 0.022 | [14] 0.078

DHX32 (UniProt Q7L7V1)
active: [11] -0.387
inactive: erlotinib -0.083 | [1] -0.091 | [2] 0.098 | [3] -0.052 | [5] 0.013 | [6] 0.038 | [7] -0.145 | [8] 0.044 | IRAK-1-4 Inhibitor I 0.036 | ralimetinib 0.096 | [10] -0.144 | [12] 0.016 | [14] -0.023 | [15] 0.017

DNTTIP1 (UniProt Q9H147)
inactive: erlotinib -0.072 | [1] -0.013 | [2] 0.021 | [3] -0.041 | [6] 0.172 | [7] 0.13 | [8] 0.061 | [9] -0.09 | [11] -0.016 | [13] 0.084 | [16] -0.152

DMAC2 isoform 4 (UniProt Q9NW81)
inactive: erlotinib 0.062 | [1] 0.114 | [2] -0.072 | [3] 0.02 | [4] 0.019 | [5] -0.047 | [6] -0.078 | [7] -0.052 | [8] 0.001 | IRAK-1-4 Inhibitor I -0.233 | ibrutinib -0.073 | [9] 0.111 | ralimetinib -0.092 | [10] -0.148 | [11] -0.048 | [12] -0.057 | [14] 0 | [15] -0.008 | [16] 0

2 entries picked at random from the list so far, as already listed:
DGCR2 (UniProt P98153)
inactive: erlotinib 0.05 | [1] 0.01 | [2] -0.129 | [3] 0.031 | [5] -0.173 | [6] -0.084 | [7] 0.056 | [8] 0.006 | IRAK-1-4 Inhibitor I -0.086 | [9] 0.092 | ralimetinib 0.082 | [10] 0.012 | [11] 0.154 | [12] 0.163 | [13] -0.028 | [15] -0.024 | [16] 0.019

DNMBP (UniProt Q6XZF7)
inactive: erlotinib 0.06 | [1] 0.675 | [2] 0.057 | [3] 0.042 | [4] -0.117 | [5] 0.03 | [6] -0.033 | [7] 0.012 | [8] -0.006 | IRAK-1-4 Inhibitor I 0.072 | ibrutinib -0.001 | [9] -0.106 | ralimetinib 0.026 | [10] 0.003 | [11] 0.022 | [12] 0.084 | [13] -0.145 | [14] -0.029 | [15] -0.053 | [16] 0.01

Remaining list, next part:

DIAPH1 (UniProt H9KV28)
inactive: erlotinib -0.1 | [1] -0.013 | [2] -0.053 | [3] 0.005 | [4] -0.04 | [5] -0.164 | [6] -0.024 | [7] 0.031 | [8] -0.037 | IRAK-1-4 Inhibitor I 0.034 | ibrutinib -0.063 | [9] 0.024 | ralimetinib -0.022 | [10] -0.106 | [11] -0.083 | [12] 0.032 | [14] 0.004 | [15] 0.009 | [16] -0.03

DNAL1 (UniProt Q4LDG9)
inactive: erlotinib -0.048 | [1] 0.066 | [2] 0.101 | [3] 0.11 | [4] -0.177 | [5] 0.09 | [6] -0.07 | [7] 0.029 | [8] -0.135 | IRAK-1-4 Inhibitor I 0.111 | ibrutinib 0.013 | ralimetinib 0.013 | [10] -0.173 | [11] -0.106 | [13] -0.03 | [14] 0.14 | [15] 0.005

DNAJC19 (UniProt Q96DA6)
inactive: erlotinib 0.013 | [1] -0.033 | [2] -0.042 | [3] -0.01 | [4] 0.025 | [5] -0.023 | [6] -0.006 | [7] 0.028 | [8] 0.005 | IRAK-1-4 Inhibitor I 0.005 | ibrutinib 0.001 | [9] -0.013 | ralimetinib -0.025 | [10] 0.016 | [11] 0.001 | [12] 0.016 | [13] 0.014 | [14] 0.023 | [15] -0.016 | [16] 0.001

DNAJA3 isoform 2 (UniProt Q96EY1)
inactive: erlotinib 0.048 | [1] -0.217 | [2] 0.099 | [3] 0.035 | [4] -0.006 | [5] 0.082 | [6] -0.159 | [7] 0.011 | [8] -0.047 | IRAK-1-4 Inhibitor I 0.024 | ibrutinib 0.005 | ralimetinib 0.03 | [10] -0.089 | [11] -0.046 | [13] -0.074 | [15] -0.036
